From patent publication US8680133B2, “Alkyl indole-3-carbinol-derived antitumor agents” (The Ohio State University Research Foundation, priority 2009, dated 2014)

Experiments:
Assay type in all cases: cell-based, human
[1] = tested on: HCT-15; assay: NCI60 screening, Colon Cancer, HCT-15
[2] = tested on: LOX IMVI; assay: NCI60 screening, Melanoma, LOX IMVI
[3] = tested on: EKVX; assay: NCI60 screening, Non-Small Cell Lung Cancer, EKVX
[4] = tested on: SNB-75; assay: NCI60 screening, CNS Cancer, SNB-75
[5] = tested on: SW-620; assay: NCI60 screening, Colon Cancer, SW-620
[6] = tested on: M14; assay: NCI60 screening, Melanoma, M14
[7] = tested on: HOP-62; assay: NCI60 screening, Non-Small Cell Lung Cancer, HOP-62
[8] = tested on: NCI-H226; assay: NCI60 screening, Non-Small Cell Lung Cancer, NCI-H226

Cc1ccc2c(c1)c(CO)cn2S(=O)(=O)c1ccc(Cl)c([N+](=O)[O-])c1 [OSU-A9M, [1-(4-chloro-3-nitro-benzenesulfonyl)-5-methyl-1H-indol-3-yl]-methanol]
Mean Optical Densities ([1]; Log10 Concentration −4.0): −0.013
Mean Optical Densities ([1]; Log10 Concentration −5.0): −0.006
Mean Optical Densities ([1]; Log10 Concentration −6.0): 1.090
Mean Optical Densities ([1]; Log10 Concentration −7.0): 1.211
Mean Optical Densities ([1]; Log10 Concentration −8.0): 1.193
Mean Optical Densities ([2]; Log10 Concentration −4.0): −0.025
Mean Optical Densities ([2]; Log10 Concentration −5.0): −0.017
Mean Optical Densities ([2]; Log10 Concentration −6.0): 0.016
Mean Optical Densities ([2]; Log10 Concentration −7.0): 0.356
Mean Optical Densities ([2]; Log10 Concentration −8.0): 0.397
Mean Optical Densities ([3]; Log10 Concentration −4.0): 0.055
Mean Optical Densities ([3]; Log10 Concentration −5.0): 0.109
Mean Optical Densities ([3]; Log10 Concentration −6.0): 1.753
Mean Optical Densities ([3]; Log10 Concentration −7.0): 1.925
Mean Optical Densities ([3]; Log10 Concentration −8.0): 1.827
Mean Optical Densities ([4]; Log10 Concentration −4.0): −0.031
Mean Optical Densities ([4]; Log10 Concentration −5.0): −0.038
Mean Optical Densities ([4]; Log10 Concentration −6.0): 1.082
Mean Optical Densities ([4]; Log10 Concentration −7.0): 1.123
Mean Optical Densities ([4]; Log10 Concentration −8.0): 1.252
Mean Optical Densities ([5]; Log10 Concentration −4.0): 0.001
Mean Optical Densities ([5]; Log10 Concentration −5.0): −0.010
Mean Optical Densities ([5]; Log10 Concentration −6.0): 0.777
Mean Optical Densities ([5]; Log10 Concentration −7.0): 1.011
Mean Optical Densities ([5]; Log10 Concentration −8.0): 1.064
Mean Optical Densities ([6]; Log10 Concentration −4.0): 0.002
Mean Optical Densities ([6]; Log10 Concentration −5.0): 0.009
Mean Optical Densities ([6]; Log10 Concentration −6.0): 1.111
Mean Optical Densities ([6]; Log10 Concentration −7.0): 1.218
Mean Optical Densities ([6]; Log10 Concentration −8.0): 1.205
Mean Optical Densities ([7]; Log10 Concentration −4.0): 0.003
Mean Optical Densities ([7]; Log10 Concentration −5.0): −0.005
Mean Optical Densities ([7]; Log10 Concentration −6.0): 1.177
Mean Optical Densities ([7]; Log10 Concentration −7.0): 1.159
Mean Optical Densities ([7]; Log10 Concentration −8.0): 1.185
Mean Optical Densities ([8]; Log10 Concentration −4.0): 0.301
Mean Optical Densities ([8]; Log10 Concentration −5.0): 0.478
Mean Optical Densities ([8]; Log10 Concentration −6.0): 1.311
Mean Optical Densities ([8]; Log10 Concentration −7.0): 1.704
Mean Optical Densities ([8]; Log10 Concentration −8.0): 1.689
